PubChem BioAssay AID504764 – Drosophila RNAi Screening Center – 2011
Test: 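Genes whose knock-down alters Notch-dependent transcription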 (primary screen). System: Drosophila Kc167 cells. Reagent: long dsRNA against Drosophila genes. Timing: about 5 days (4 days dsRNA, then 24 h after transfection). Conditions: transfection of constitutively active membrane-tethered Notch lacking the extracellular domain, read 24 h later. Measured: 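Firefly luciferase from an E(spl)m3 reporter with active Notch, plus control-promoter and uninduced reporter wells for normalisation; unnormalised counts, duplicate wells a and b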. Reading the numbers: induced reporter light, run 1, well a and induced reporter light, run 1, well b: higher = more light from the Notch target reporter with active Notch; control promoter light, run 1, well a and control promoter light, run 1, well b: higher = more light from the viral control promoter (cell number, transfection, viability); uninduced reporter light, run 1, well a: higher = more light from the Notch target reporter without active Notch. Rule for the call: 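Wells with low control signal or poorly matching duplicates excluded; duplicates averaged; per source plate, z beyond ±2 for induced/control log2 ratio or beyond ±1.8 for induced/uninduced marks a hit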. Calls: active = modifier hit (raised or lowered Notch signal); inactive = not a hit.
The screen tested about 22,000 reagents; this is an unselected part of those with a known target gene and a result. Of all reagents, 403 (1.9%) got an active call. 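Unnormalised raw counts per well; ratio z-scores behind the hit calls and whether each hit raises or lowers signal are not deposited.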 A number with no mark means an inactive call. Reagents against one gene are numbered here. The record does not give: the amount of reagent.

With ORMDL, what was measured?
induced reporter light, run 1, well a: 1.57e5; induced reporter light, run 1, well b: 98785; control promoter light, run 1, well a: 1.08e5; control promoter light, run 1, well b: 87395; uninduced reporter light, run 1, well a: 7950

What is on record for Idua?
induced reporter light, run 1, well a: 2.17e5; induced reporter light, run 1, well b: 2.16e5; control promoter light, run 1, well a: 2.04e5; control promoter light, run 1, well b: 1.84e5; uninduced reporter light, run 1, well a: 17342

For Mgtor, how do the results read?
induced reporter light, run 1, well a: 82845; induced reporter light, run 1, well b: 98715; control promoter light, run 1, well a: 71560; control promoter light, run 1, well b: 77290; uninduced reporter light, run 1, well a: 7615

What is on record for Teh2?
induced reporter light, run 1, well a: 1.59e5; induced reporter light, run 1, well b: 1.24e5; control promoter light, run 1, well a: 2.08e5; control promoter light, run 1, well b: 1.52e5; uninduced reporter light, run 1, well a: 7405

What is on record for Aplip1 #1?
induced reporter light, run 1, well a: 1.91e5; induced reporter light, run 1, well b: 2.02e5; control promoter light, run 1, well a: 2.30e5; control promoter light, run 1, well b: 2.25e5; uninduced reporter light, run 1, well a: 14570

Which result is listed for Aplip1 #2?
induced reporter light, run 1, well a: 1.63e5; induced reporter light, run 1, well b: 1.34e5; control promoter light, run 1, well a: 2.01e5; control promoter light, run 1, well b: 1.99e5; uninduced reporter light, run 1, well a: 8355

Which result is listed for Naa60?
induced reporter light, run 1, well a: 1.28e5; induced reporter light, run 1, well b: 1.21e5; control promoter light, run 1, well a: 1.63e5; control promoter light, run 1, well b: 1.50e5; uninduced reporter light, run 1, well a: 9210

What is on record for sisA?
induced reporter light, run 1, well a: 84445; induced reporter light, run 1, well b: 1.20e5; control promoter light, run 1, well a: 1.39e5; control promoter light, run 1, well b: 1.61e5; uninduced reporter light, run 1, well a: 8092

How did the screen score CG30114?
induced reporter light, run 1, well a: 1.06e5; induced reporter light, run 1, well b: 1.11e5; control promoter light, run 1, well a: 1.47e5; control promoter light, run 1, well b: 1.25e5; uninduced reporter light, run 1, well a: 8350

What did the screen give for CG17375?
induced reporter light, run 1, well a: 67360; induced reporter light, run 1, well b: 63590; control promoter light, run 1, well a: 58505; control promoter light, run 1, well b: 53295; uninduced reporter light, run 1, well a: 4328

With foxo #1, what was measured?
induced reporter light, run 1, well a: 1895; induced reporter light, run 1, well b: 1555; control promoter light, run 1, well a: 1635; control promoter light, run 1, well b: 1655; uninduced reporter light, run 1, well a: 1725

With foxo #2, what was measured?
induced reporter light, run 1, well a: 1.72e5; induced reporter light, run 1, well b: 1.71e5; control promoter light, run 1, well a: 74720; control promoter light, run 1, well b: 72285; uninduced reporter light, run 1, well a: 14240

Part of the list above in another layout:
{"target gene":"Naa60","dsRNA no.":1,"induced reporter light, run 1, well a":1.28e5,"induced reporter light, run 1, well b":1.21e5,"control promoter light, run 1, well a":1.63e5,"control promoter light, run 1, well b":1.50e5,"uninduced reporter light, run 1, well a":9210}
{"target gene":"sisA","dsRNA no.":1,"induced reporter light, run 1, well a":84445,"induced reporter light, run 1, well b":1.20e5,"control promoter light, run 1, well a":1.39e5,"control promoter light, run 1, well b":1.61e5,"uninduced reporter light, run 1, well a":8092}
